In PMC5620733:
Negatives hold for the conditions tested. At least one verdict was read from the data and is not stated in words by the source.

Test system: thrombin
Assay: fluorescence decrease on chitosan-coated Au nanostructure (aptamer release)
Conditions: irrelevant DNA sequences of similar size gave negligible change (data not shown); 20 mM Tris-HCl pH 7.4, 20 mM MgCl2; chitosan-coated (1000 Da) Au nanostructure blocked with 1% BSA; 15 min; temperature not stated; commercial protein; single-stranded DNA

Q: Does TAGTGAATGGATCGGACAGC [Random DNA 20mer] bind?
A: no binding
